Out of some 580,000 compounds screened, about 6,100 (1.1%) were called active. Inconclusive results, whose numbers are uncertain, are shown with a selection of clear calls. Calls follow the shape of the dose curve; as a rule, active = well fitted inhibition curve with a large enough effect; inconclusive = small, poorly fitted or top-dose-only effect, or another doubt; inactive = no such curve, though single readings can be large or run the other way. Potencies of inconclusive entries are doubtful fits and often do not repeat.
target: Polyunsaturated fatty acid lipoxygenase ALOX12 (Homo sapiens) (UniProt P18054); assay: Primary qHTS assay for inhibitors of human arachidonate 12S-lipoxygenase (ALOX12): Round 2; conditions: purified 12hLO, xylenol orange hydroperoxide absorbance; activity change, negative = inhibition: at 108 µM (top of the series) unless noted
Outline: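 Purified human 12hLO (150 nM final) in 25 mM Hepes, 0.01% Triton X-100, pH 7.0 was preincubated 15 min at room temperature with compound. Then 40 uM arachidonic acid was added, 30 min. Hydroperoxide was read by Fe-XO absorbance ratio 573/405 nm.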
% is scaled to controls: 0 for no effect and ±100 for the full control effect; potency is read from the fitted curve at half-maximal effect.

Sequences of proteins named here, by UniProt entry; tags and fusion partners are left off. A change or cut given only in a name is not applied to a line headed by its entry.
UniProt P18054: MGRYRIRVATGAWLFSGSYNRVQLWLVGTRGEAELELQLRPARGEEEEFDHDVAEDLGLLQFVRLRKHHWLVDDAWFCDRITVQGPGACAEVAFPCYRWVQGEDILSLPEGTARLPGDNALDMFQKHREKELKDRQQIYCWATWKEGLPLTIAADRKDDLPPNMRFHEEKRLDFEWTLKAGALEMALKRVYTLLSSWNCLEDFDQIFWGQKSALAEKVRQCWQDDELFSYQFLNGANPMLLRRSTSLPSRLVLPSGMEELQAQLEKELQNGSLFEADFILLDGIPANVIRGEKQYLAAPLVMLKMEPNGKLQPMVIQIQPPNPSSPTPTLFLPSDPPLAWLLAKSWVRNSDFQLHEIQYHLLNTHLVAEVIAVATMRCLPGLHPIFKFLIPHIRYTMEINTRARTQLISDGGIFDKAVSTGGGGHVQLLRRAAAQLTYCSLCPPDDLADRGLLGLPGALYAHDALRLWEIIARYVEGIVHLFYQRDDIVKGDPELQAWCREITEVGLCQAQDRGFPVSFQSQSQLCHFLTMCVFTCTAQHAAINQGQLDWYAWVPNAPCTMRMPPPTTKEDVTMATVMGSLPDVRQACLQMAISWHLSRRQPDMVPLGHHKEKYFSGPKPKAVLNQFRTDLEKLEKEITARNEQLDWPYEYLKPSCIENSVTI

SMILES | Potency | activity change, negative = inhibition
COc1ccc(C(=O)N2CCCN(C)c3ccccc32)c(OC)c1 | inconclusive: 15.8 µM [inhibitor, full curve] | –
COc1ccccc1Oc1c(C)oc2cc(O)ccc2c1=O | inconclusive: 112 µM [inhibitor, single point] | –
CC1CCCC(N2CCN(C(=O)c3ccc(F)cc3)CC2)C1 (stereo not given) | inconclusive: 0.355 µM [inhibitor, full curve, poor fit] | –
COc1cc(NC(=O)c2onc(C)c2Cl)cc(OC)c1OC | inconclusive: 0.141 µM [inhibitor, full curve, poor fit] | –
CC(=O)Nc1ccc(Nc2cc(C)nc3c(-c4ccc(C)cc4)cnn23)cc1 | – | inactive: 2.22%
COc1ccc(OC)c(S(=O)(=O)N(C)CC(=O)N2CCN(c3ccc(F)cc3)CC2)c1 | – | inactive: 1.46%
COc1ccc(NC(=O)c2c(C)nn(Cc3ccccc3)c2C)cc1S(=O)(=O)N(C)C | inconclusive: 35.5 µM [inhibitor, partial curve, poor fit] | –
COc1ccc(OC)c(N=C(C)C2=C(O)COC2=O)c1 | inconclusive: 25.1 µM [inhibitor, single point] | –
CCc1c(C)sc(NC(=O)c2noc(C)c2[N+](=O)[O-])c1C#N | inconclusive: 39.8 µM [inhibitor, partial curve] | –
c1cc(CNC2=NCCCCC2)ccn1 | inconclusive: 28.2 µM [inhibitor, partial curve, poor fit] | –
c1ccc(N2CCN(c3ccccc3)C2c2cccnc2)cc1 | – | inactive: -3.71%
CCOC(=O)N1CCN(C(=O)Cc2ccc(C)cc2)CC1 | – | inactive: -2.69%
CN(C)CCN(C(=O)c1ccc2ccccc2c1)c1nc2cc3c(cc2s1)OCO3 | inconclusive: 44.7 µM [inhibitor, partial curve, poor fit] | –
CC(C)CCC(O)(c1ccccc1)C(CN1CCOCC1)c1ccccc1 (stereo not given) | inconclusive: 44.7 µM [inhibitor, partial curve, poor fit] | –
CCOC(=O)CC1(NC(=O)c2cc(COc3c(F)cccc3F)on2)CCCCC1 | – | inconclusive: -34.6% [inhibitor]
CC(C)(C)NC(=O)C(=O)NC(C)(C)C | inconclusive: 28.2 µM [inhibitor, partial curve, poor fit] | –
Cc1cc(Br)cn2c(Cc3ccccc3C(F)(F)F)c(-c3ccco3)nc12 | inconclusive: 63.1 µM [inhibitor, partial curve, poor fit] | –
CCn1nnnc1NCc1ccc(SC)cc1 | inconclusive: 44.7 µM [inhibitor, single point] | –
CCOc1cc(=O)n2c(c1C(=O)Nc1ccc(Br)cc1)CCCC2 | – | inactive: 16.6%
O=C(CNc1cccc2ccccc12)N/N=C/c1cccc(Oc2ccccc2)c1 | – | inactive: 8.36%
CN(C)S(=O)(=O)c1cc(C(=O)NCc2coc(-c3cccs3)n2)ccc1Cl | inconclusive: 35.5 µM [inhibitor, single point] | –
Cc1cc(C(=O)NCc2ccncc2)c2c(C3CCNCC3)noc2n1 | inconclusive: 10 µM [inhibitor, full curve, poor fit] | –

3 of the compounds above, as comma-separated lines.
SMILES,Potency,"activity change, negative = inhibition"
COc1ccc(OC)c(S(=O)(=O)N(C)CC(=O)N2CCN(c3ccc(F)cc3)CC2)c1,–,inactive: 1.46%
c1ccc(N2CCN(c3ccccc3)C2c2cccnc2)cc1,–,inactive: -3.71%
CCOC(=O)N1CCN(C(=O)Cc2ccc(C)cc2)CC1,–,inactive: -2.69%

The list goes on:

SMILES | Potency | activity change, negative = inhibition
N#Cc1ccc(C(=O)NC2CCCc3ccccc32)cc1 (stereo not given) | – | inactive: 1.67%
COc1ccc(-c2cc(-c3n[nH]c(=S)n3-c3ccccc3OC)[nH]n2)cc1 | inconclusive: 50.1 µM [inhibitor, partial curve, poor fit] | –
Cc1[nH]c2ccccc2c1/C=C(\C#N)c1nc2ccccc2[nH]1 | – | inactive: -24%
CC(=O)N1CCC(c2nnc3n2CCNC3)CC1 | inconclusive: 25.1 µM [inhibitor, partial curve, poor fit] | –
C#CCOCCOCCOCCNc1nc(N2CCN(C(=O)[C@H](CCCCN)n3cc(CC(C)O)nn3)CC2)nc(N2CCN(C(=O)[C@H](CCCCN)n3cc(CC(C)O)nn3)CC2)n1 (stereo not given in full) | active: 12.6 µM | –
CCOC(=O)CCNC(=O)N1CCCC(N(C)CCc2ccc(OC)c(OC)c2)C1 (stereo not given) | inconclusive: 79.4 µM [inhibitor, single point] | –
CN(C)CC(=O)N1C[C@@H]2CN(c3cc(C4CC4)ncn3)C[C@]2(C(=O)O)C1 | – | inactive: 2.64%
Cc1ncc2n1C(=O)N(C1CCN(Cc3ccc(C(F)(F)F)cc3)CC1)C2 | inconclusive: 3.55 µM [inhibitor, full curve, poor fit] | –
COCCN(Cc1cccs1)S(=O)(=O)c1cccc(C(=O)O)c1 | – | inactive: -27.6%
CCc1ccc(Cl)c(CC)c1NC(=O)C=C(C)C | – | inactive: 5.7%
C[C@@H]1CN(c2ccc(N3CCNC[C@@H]3C)cc2C#N)CCN1Cc1ccccc1 | inconclusive: 31.6 µM [inhibitor, partial curve] | –
CC(C)CN(C(=O)c1cccc(S(=O)(=O)N2CCCCC2)c1)C1CCS(=O)(=O)C1 (stereo not given) | inconclusive: 2.24 µM [inhibitor, full curve, poor fit] | –
COc1cc(C(C)=O)ccc1OCCN1CCC(Cc2ccccc2)CC1 | inconclusive: 0.562 µM [inhibitor, partial curve, poor fit] | –
CSc1ncnc2c1ncn2CCCN1CCN(Cc2cccc3ccccc23)CC1 | inconclusive: 89.1 µM [inhibitor, partial curve, poor fit] | –
COc1ccc(S(=O)(=O)N2CCN(Cc3c[nH]c4ccccc34)CC2)cc1 | inconclusive: 126 µM [inhibitor, single point] | –
COc1ccc(/C=N/NC(N)=S)cc1OC(=O)c1ccccc1 | inconclusive: 50.1 µM [inhibitor, partial curve, poor fit] | –
Cn1nccc1NS(=O)(=O)c1ccc(C(C)(C)C)cc1 | – | inactive: 16.9%
CCn1c(SCC(=O)Nc2ccc(OCc3ccccc3)cc2)nnc1-c1ccco1 | – | inactive: 0.436%
Cc1ccc(CNC(=O)Cc2c(C)c3cc4c(C)coc4cc3oc2=O)cc1 | inconclusive: 178 µM [inhibitor, partial curve, poor fit] | –
Cc1ccc(-c2csc(Nc3ccc(S(N)(=O)=O)cc3)n2)o1 | inconclusive: 50.1 µM [inhibitor, partial curve, poor fit] | –
COc1cccc(-c2sc3ccc(OC)cc3c2-c2ccc(OCCN3CCOCC3)cc2)c1 | inconclusive: 3.16 µM [inhibitor, full curve, poor fit] | –
Cn1c2ccccc2c(=O)c2c(=O)n(C3CCCCC3)c(-c3ccco3)nc21 | inconclusive: 44.7 µM [inhibitor, partial curve, poor fit] | –

SMILES | Potency | activity change, negative = inhibition
CCOC(=O)C(=O)N(C)c1c(CC)nc2c(OCc3cccc(OC)c3)cccn12 | inconclusive: 63.1 µM [inhibitor, partial curve, poor fit] | –
CCCOc1ccc(CNCCCOCC)cc1OC | inconclusive: 1.26 µM [inhibitor, full curve, poor fit] | –
CN1C(=O)C2(OCCCO2)c2cc(Cl)ccc21 | inconclusive: 50.1 µM [inhibitor, partial curve, poor fit] | –
C/C(=N\N=C1/NC(=O)C(C)S1)c1ccc([N+](=O)[O-])cc1 (stereo not given) | – | inactive: 8.17%
CCOc1cccc(NC(=O)/C(C#N)=C\c2cn(CC(=O)O)c3ccccc23)c1 | inconclusive: 44.7 µM [inhibitor, partial curve, poor fit] | –
COc1ccc(N=C2S/C(=C\c3ccc(OCC(=O)O)cc3)C(=O)N2CCc2c[nH]c3ccccc23)cc1 | inconclusive: 44.7 µM [inhibitor, partial curve] | –
O=C(NC12CC3CC(CC(C3)C1)C2)C12CC3CC(C1)CC(n1cnc(Cl)n1)(C3)C2 | – | inactive: -4.08%
C=CC#CCCCc1ccc(OC(=O)c2ccc(C(=O)Oc3ccc(CCCC#CC=C)cc3C)cc2)c(C)c1 | – | inactive: -9.58%
COc1ccc([C@@H]2CC(=O)c3c(O)cc(O[C@@H]4O[C@H](CO[C@@H]5O[C@@H](C)[C@H](O)[C@@H](O)[C@@H]5O)[C@@H](O)[C@H](O)[C@@H]4O)cc3O2)cc1O | inconclusive: 5.44 µM [inhibitor, full curve, poor fit] | –
O=S(=O)(O)c1ccc(N=Nc2ccccc2)cc1 | – | inactive: -26.3%
O=C(CCS(=O)(=O)c1ccccc1)NC1CCCC1 | inconclusive: 126 µM [inhibitor, partial curve, poor fit] | –
Oc1ccc(/C=N/Nc2ccnc3cc(Cl)ccc23)cc1O | inconclusive: 50.1 µM [inhibitor, partial curve, poor fit] | –
COc1cc(NC(=O)N2C[C@@H](F)C[C@H]2C(=O)N2CCCCC2)cc(OC)c1 | – | inactive: 22%
COC(=O)c1ccccc1NC(=O)O[C@@H]1CO[C@H]2[C@@H]1OC[C@@H]2Nc1nccc(-c2ccc(N(C)C)cc2)n1 | – | inactive: 10.4%
COC(=O)c1ccc(C(=O)OC)c(NC(=O)C2CC(=O)N(C3CCCC3)C2)c1 (stereo not given) | inconclusive: 79.4 µM [inhibitor, partial curve, poor fit] | –
CC(=O)N1CCC(Cc2ncc(C)n2C2CC2)C1 (stereo not given) | inconclusive: 20 µM [inhibitor, single point] | –
C/C(=N/Nc1cc(C(F)(F)F)ccc1Cl)c1ccc(Br)cc1 | inconclusive: 44.7 µM [inhibitor, partial curve, poor fit] | –
COc1ccc(S(=O)(=O)Nc2ccc(Cl)cn2)c(C)c1C | inconclusive: 112 µM [inhibitor, single point] | –
Cc1csc(NC(=O)c2cc3c(s2)CCCC3)n1 | inconclusive: 31.6 µM [inhibitor, single point] | –
Cc1ccccc1C(=O)NC(=S)Nc1ccc(N2CCN(C(=O)c3ccccc3)CC2)cc1 | inconclusive: 11.2 µM [inhibitor, partial curve, poor fit] | –
CCOc1ccc(NC(=O)c2c(Nc3ccc(OC)cc3OC)sc(C(=O)c3ccc(Cl)cc3)c2N)cc1 | – | inactive: -5.37%
